No constants are given. Whether binding was seen depends on the method and setting. Binding can be weak; no strength is given.
Experiments:
[1] = molecular target: T1, Cul3_(Soma), somatic isoform of Cullin-3, two-hybrid bait (Drosophila) (UniProt Q9V475); assay: two-hybrid; β-galactosidase (LacZ) filter assay; isolated prey clones transformed into yeast strain Y187 pre-transformed with the bait constructs
T1 sequence: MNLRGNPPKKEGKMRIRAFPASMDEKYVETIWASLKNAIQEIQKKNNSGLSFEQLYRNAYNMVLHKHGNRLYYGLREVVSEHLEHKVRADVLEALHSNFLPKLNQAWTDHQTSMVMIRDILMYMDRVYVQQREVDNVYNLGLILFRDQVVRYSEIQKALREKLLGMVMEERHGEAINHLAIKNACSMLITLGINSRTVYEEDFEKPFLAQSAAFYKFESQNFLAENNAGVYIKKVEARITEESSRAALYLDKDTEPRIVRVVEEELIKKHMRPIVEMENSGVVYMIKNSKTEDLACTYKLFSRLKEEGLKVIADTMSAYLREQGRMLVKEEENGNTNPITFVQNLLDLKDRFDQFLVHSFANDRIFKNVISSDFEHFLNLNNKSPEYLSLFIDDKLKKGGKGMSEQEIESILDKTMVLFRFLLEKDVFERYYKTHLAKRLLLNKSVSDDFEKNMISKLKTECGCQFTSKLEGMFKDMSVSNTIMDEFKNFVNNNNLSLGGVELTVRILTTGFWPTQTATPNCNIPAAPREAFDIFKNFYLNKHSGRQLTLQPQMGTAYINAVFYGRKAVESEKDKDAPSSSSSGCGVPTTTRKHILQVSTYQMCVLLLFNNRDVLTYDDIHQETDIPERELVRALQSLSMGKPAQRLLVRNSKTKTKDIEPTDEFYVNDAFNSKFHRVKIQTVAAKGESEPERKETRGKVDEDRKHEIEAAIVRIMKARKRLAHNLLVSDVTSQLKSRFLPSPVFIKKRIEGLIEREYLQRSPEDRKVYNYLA

[2] = molecular target: T1, Cul3_(Soma), somatic isoform of Cullin-3, two-hybrid bait (Drosophila); assay: two-hybrid; nutrient-omitted medium assay: growth on plates lacking leucine, tryptophan, histidine and adenine (−4 plates); Klhl10 shown after 14 d

binding [1]: binds
binding [2]: binds
Substance: Drosophila orthologue of Spop (CG9924), two-hybrid prey

Source: PMC1976628
